The other results are listed elsewhere or left out. Single values are uncertain, as repeats are few or missing.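 The apoptosis fraction was the count of cleaved-PARP antibody-stained nuclei relative to all DNA-stained nuclei, imaged in 1,536-well plates. Screening doses were set so most cells survived, and baseline and induced cleaved-PARP levels vary greatly across cell lines.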
Assays:
Test in all cases: cleaved PARP positive nuclei fraction relative to DMSO control; melanoma cells; higher = more apoptosis
Conditions in all cases: library dose: low library concentration; 72 h
[1] = test system: 501Mel
[2] = test system: A101D
[3] = test system: A2058
[4] = test system: C32
[5] = test system: CBRC008 (line from a melanoma biopsy)
[6] = test system: CBRC014 (line from a melanoma biopsy)
[7] = test system: CBRC016 (line from a melanoma biopsy)
[8] = test system: CBRC017 (line from a melanoma biopsy)
[9] = test system: COLO792
[10] = test system: COLO800
[11] = test system: COLO829
[12] = test system: G361
[13] = test system: IPC-298
[14] = test system: IST-MEL1
[15] = test system: LB2518-MEL
[16] = test system: LOXIMVI

Row | Compound | cleaved PARP positive nuclei fraction [1] [%] | cleaved PARP positive nuclei fraction [2] [%] | cleaved PARP positive nuclei fraction [3] [%] | cleaved PARP positive nuclei fraction [4] [%] | cleaved PARP positive nuclei fraction [5] [%] | cleaved PARP positive nuclei fraction [6] [%] | cleaved PARP positive nuclei fraction [7] [%] | cleaved PARP positive nuclei fraction [8] [%] | cleaved PARP positive nuclei fraction [9] [%] | cleaved PARP positive nuclei fraction [10] [%] | cleaved PARP positive nuclei fraction [11] [%] | cleaved PARP positive nuclei fraction [12] [%] | cleaved PARP positive nuclei fraction [13] [%] | cleaved PARP positive nuclei fraction [14] [%] | cleaved PARP positive nuclei fraction [15] [%] | cleaved PARP positive nuclei fraction [16] [%]
1 | NC1(c2ccc(-c3nc4ccn5c(=O)[nH]nc5c4cc3-c3ccccc3)cc2)CCC1 + COc1ccc(-c2ccc3c(N4CCOCC4)nc(N4C[C@@H](C)O[C@@H](C)C4)nc3n2)cc1CO [KU0063794] (first compound 0.4 µM, partner dose 0.02 µM) | 148 | 37.7 | 47.7 | 132 | 86.7 | 82.2 | 110 | 82.9 | 138 | 135 | 98.7 | 75.3 | 147 | 568 | 88.9 | 109
2 | Cn1sc(=O)n(Cc2ccccc2)c1=O + Oc1nc(-c2ccc(C(F)(F)F)cc2)nc2c1CSCC2 [XAV939] (first compound 0.4 µM, partner dose 2 µM) | 113 | 14.5 | 90 | 94 | 65.3 | 91.9 | 69.4 | 115 | 57.8 | 109 | 35.9 | 74.4 | 29.9 | 116 | 79.1 | 87.5
3 | Cn1sc(=O)n(Cc2ccccc2)c1=O + CCN(CC)CCCCNc1ncc2cc(-c3cc(OC)cc(OC)c3)c(NC(=O)NC(C)(C)C)nc2n1 [PD173074] (first compound 0.4 µM, partner dose 0.1 µM) | 72.8 | 43 | 119 | 115 | 112 | 184 | 102 | 65.9 | 92.8 | 74.5 | 74.7 | 67.7 | 60.4 | 84.5 | 61 | 31.4
4 | C[C@@H](N)c1ccc(C(=O)Nc2ccnc3[nH]ccc23)cc1 + COC(=O)c1sccc1S(=O)(=O)Nc1ccc(Nc2ccccc2)cc1OC [GSK0660] (first compound 0.4 µM, partner dose 1 µM) | 109 | 16.7 | 64.3 | 86.5 | 122 | 126 | 67 | 87 | 217 | 72.2 | 81 | 121 | 962 | 88.5 | 118 | 388
5 | Cn1cnc2c(F)c(Nc3ccc(Br)cc3Cl)c(C(=O)NOCCO)cc21 [selumetinib] + Cn1cc(/C=C2\C(=O)Nc3cccnc32)c2ccccc21 [GW441756] (first compound 0.015 µM, partner dose 0.4 µM) | 135 | 12.3 | 46.8 | 80.1 | 241 | 85 | 130 | 108 | 84.2 | 125 | 60.6 | 214 | 121 | 40.3 | 288 | 38.4
6 | CN(c1ncccc1CNc1nc(Nc2ccc3c(c2)CC(=O)N3)ncc1C(F)(F)F)S(C)(=O)=O + O=C1NC(=O)/C(=C/c2ccc(-c3ccc(F)cc3O)o2)S1 [AS252424] (first compound 0.08 µM, partner dose 1 µM) | 157 | 46.4 | 117 | 86.5 | 150 | 209 | 83.4 | 105 | 152 | 50.2 | 174 | 178 | 96.7 | 101 | 77.7 | 139
7 | CC(=O)O[C@@]12CO[C@@H]1C[C@H](O)[C@@]1(C)C(=O)[C@H](O)C3=C(C)[C@@H](OC(=O)[C@H](O)[C@@H](NC(=O)OC(C)(C)C)c4ccccc4)C[C@@](O)([C@@H](OC(=O)c4ccccc4)[C@H]21)C3(C)C [Docetaxel] + N#Cc1c(O)c2c(-c3ccc(-c4ccccc4O)cc3)csc2[nH]c1=O [A769662] (first compound 0.0001 µM, partner dose 2 µM) | 94.9 | 55 | 3720 | 528 | 360 | 142 | 244 | 136 | 533 | 519 | 237 | 660 | 224 | 154 | 141 | 51.3
8 | C[C@]1(O)C[C@@H](c2nc(-c3ccc4ccc(-c5ccccc5)nc4c3)c3c(N)nccn32)C1 + O=S(=O)(c1ccccc1)N(CC(F)(F)F)c1ccc(C(O)(C(F)(F)F)C(F)(F)F)cc1 [T0901317] (first compound 0.4 µM, partner dose 1.4 µM) | 156 | 13.7 | 99.6 | 93.1 | 34.6 | 97.4 | 61.4 | 81.4 | 85.9 | 239 | 126 | 61.9 | 54.3 | 96.7 | 74.5 | 234
9 | CCN(CC)CCNC(=O)c1c(C)[nH]c(/C=C2\C(=O)Nc3ccc(F)cc32)c1C [sunitinib] + CCc1ccc(CCOc2ccc(CC3SC(=O)NC3=O)cc2)nc1 [pioglitazone] (first compound 0.4 µM, partner dose 2 µM) | 272 | 29.7 | 80.4 | 91.3 | 158 | 104 | 76.4 | 81.6 | 148 | 87.1 | 13.6 | 172 | 58.1 | 55 | 53.1 | 35.7
10 | CC(=O)O[C@@]12CO[C@@H]1C[C@H](O)[C@@]1(C)C(=O)[C@H](O)C3=C(C)[C@@H](OC(=O)[C@H](O)[C@@H](NC(=O)OC(C)(C)C)c4ccccc4)C[C@@](O)([C@@H](OC(=O)c4ccccc4)[C@H]21)C3(C)C [Docetaxel] + COc1ccc(-c2ccc3c(N4CCOCC4)nc(N4C[C@@H](C)O[C@@H](C)C4)nc3n2)cc1CO [KU0063794] (first compound 0.0001 µM, partner dose 0.02 µM) | 48.2 | 66.7 | 4660 | 184 | 602 | 207 | 465 | 332 | 315 | 86.8 | 225 | 409 | 173 | 45.6 | 126 | 170
11 | CS(=O)(=O)c1ccc(C(=O)Nc2ccc(Cl)c(-c3ccccn3)c2)c(Cl)c1 [vismodegib] + Oc1cc(-c2nc(-c3ccccc3)[nH]c2-c2ccncc2)ccc1Cl [L779450] (first compound 1 µM, partner dose 0.2 µM) | 94 | 16.6 | 120 | 147 | 51.6 | 96.4 | 77.7 | 71.7 | 85.3 | 90.3 | 42.3 | 94.6 | 66.7 | 232 | 41.1 | 97.7
12 | NC1(c2ccc(-c3nc4ccn5c(=O)[nH]nc5c4cc3-c3ccccc3)cc2)CCC1 + O=C(Nc1ccccc1)c1cc([N+](=O)[O-])ccc1Cl [GW9662] (first compound 0.4 µM, partner dose 2 µM) | 140 | 16.8 | 28.7 | 30.7 | 189 | 93.3 | 62.9 | 92.8 | 38.5 | 328 | 120 | 87.8 | 82.2 | 110 | 152 | 97.3
13 | COc1ccc(C2=N[C@@H](c3ccc(Cl)cc3)[C@@H](c3ccc(Cl)cc3)N2C(=O)N2CCNC(=O)C2)c(OC(C)C)c1 [Nutlin-3] + c1cc(-c2cnn3cc(-c4ccc(OCCN5CCCCC5)cc4)cnc23)ccn1 [Dorsomorphin] (first compound 0.1 µM, partner dose 0.4 µM) | 92.9 | 29.5 | 101 | 39.4 | 40.9 | 126 | 81.4 | 120 | 97 | 39.8 | 80 | 169 | 64.1 | 59.9 | 46.1 | 166
14 | COc1ccc(C2=N[C@@H](c3ccc(Cl)cc3)[C@@H](c3ccc(Cl)cc3)N2C(=O)N2CCNC(=O)C2)c(OC(C)C)c1 [Nutlin-3] + O=C(O)C(=O)Nc1sc2c(c1C(=O)O)CCNC2 [TCS401] (first compound 0.1 µM, partner dose 1.66667 µM) | 36.6 | 31.4 | 81 | 233 | 123 | 79.6 | 70.9 | 91.5 | 53.2 | 98 | 45.8 | 145 | 222 | 34.9 | 21.1 | 77.7
15 | CN(c1ncccc1CNc1nc(Nc2ccc3c(c2)CC(=O)N3)ncc1C(F)(F)F)S(C)(=O)=O + CCc1ccc(CCOc2ccc(CC3SC(=O)NC3=O)cc2)nc1 [pioglitazone] (first compound 0.08 µM, partner dose 2 µM) | 80.3 | 17.9 | 109 | 341 | 97.7 | 136 | 51.3 | 104 | 117 | 76.3 | 45.6 | 110 | 125 | 55 | 71 | 109
16 | NC1(c2ccc(-c3nc4ccn5c(=O)[nH]nc5c4cc3-c3ccccc3)cc2)CCC1 + CC(C)CCN1c2nc(Nc3cc(F)c(O)c(F)c3)ncc2N(C)C(=O)C1C [BID1870] (first compound 0.4 µM, partner dose 0.2 µM) | 88.6 | 17.1 | 92.8 | 143 | 99.8 | 99.7 | 39.8 | 194 | 96.2 | 139 | 134 | 136 | 150 | 22.1 | 80.5 | 70.9
17 | CC1(C)CCC(c2ccc(Cl)cc2)=C(CN2CCN(c3ccc(C(=O)NS(=O)(=O)c4ccc(N[C@H](CCN5CCOCC5)CSc5ccccc5)c(S(=O)(=O)C(F)(F)F)c4)cc3)CC2)C1 + CCc1ccc(CCOc2ccc(CC3SC(=O)NC3=O)cc2)nc1 [pioglitazone] (first compound 0.4 µM, partner dose 2 µM) | 224 | 49.8 | 49.2 | 556 | 405 | 457 | 240 | 439 | 309 | 42.6 | 105 | 131 | 93.5 | 100 | 256 | 195

Complete entries as entered above. Order of values: cleaved PARP positive nuclei fraction [1] [%] | cleaved PARP positive nuclei fraction [2] [%] | cleaved PARP positive nuclei fraction [3] [%] | cleaved PARP positive nuclei fraction [4] [%] | cleaved PARP positive nuclei fraction [5] [%] | cleaved PARP positive nuclei fraction [6] [%] | cleaved PARP positive nuclei fraction [7] [%] | cleaved PARP positive nuclei fraction [8] [%] | cleaved PARP positive nuclei fraction [9] [%] | cleaved PARP positive nuclei fraction [10] [%] | cleaved PARP positive nuclei fraction [11] [%] | cleaved PARP positive nuclei fraction [12] [%] | cleaved PARP positive nuclei fraction [13] [%] | cleaved PARP positive nuclei fraction [14] [%] | cleaved PARP positive nuclei fraction [15] [%] | cleaved PARP positive nuclei fraction [16] [%]
Cn1sc(=O)n(Cc2ccccc2)c1=O + CCN(CC)CCCCNc1ncc2cc(-c3cc(OC)cc(OC)c3)c(NC(=O)NC(C)(C)C)nc2n1 [PD173074] (first compound 0.4 µM, partner dose 0.1 µM) in the list: 72.8 | 43 | 119 | 115 | 112 | 184 | 102 | 65.9 | 92.8 | 74.5 | 74.7 | 67.7 | 60.4 | 84.5 | 61 | 31.4
CS(=O)(=O)c1ccc(C(=O)Nc2ccc(Cl)c(-c3ccccn3)c2)c(Cl)c1 [vismodegib] + Oc1cc(-c2nc(-c3ccccc3)[nH]c2-c2ccncc2)ccc1Cl [L779450] (first compound 1 µM, partner dose 0.2 µM) in the list: 94 | 16.6 | 120 | 147 | 51.6 | 96.4 | 77.7 | 71.7 | 85.3 | 90.3 | 42.3 | 94.6 | 66.7 | 232 | 41.1 | 97.7
